Values from PubChem BioAssay AID1259308 (NCATS, 2017)
Assay: 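Knock-downs that increase output of a recombinant reporter protein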 (primary screen). Cell system: human HEK293 embryonic kidney cells stably expressing firefly luciferase (HEK-CMV-Luc2-Hygro). Reagents: single siRNA against human genes, 0.8 pmol siRNA per well. Timing: 72 h. Measured: 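Luciferase light (ONE-Glo) measured on one replicate plate set and viability (CellTiter-Glo) on the other, scaled to a negative control siRNA, with robust z-scores and luciferase per cell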. Reading the numbers: total luciferase, z-score: higher = more reporter protein produced. Hit rule: 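Active when the median/MAD z-score for overall luciferase is greater than 3; a gene was taken forward for validation with new siRNAs if at least two of its three siRNAs passed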. Calls: active = raised luciferase; inactive = no rise.
The whole screen tested about 59,000 reagents; shown is a part drawn at random. About 1,510 of them (2.6%) count as active. 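Calls use total luciferase alone and ignore viability, so some active siRNAs may act by altering cell number.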 Unmarked entries are inactive. The numbers tell different reagents against one gene apart. Not all columns of the deposit are shown.

Silencing of CYLC2 #1 gave: total luciferase, z-score 1.77.
Silencing of CYLC2 #2 resulted in: total luciferase, z-score -0.473.
For CYLC2 #3, the values are total luciferase, z-score -1.19.
Knock-down of STC1 #1 came out at: total luciferase, z-score -0.58.
STC1 #2 scored total luciferase, z-score 0.7.
STC1 #3 scored total luciferase, z-score -1.41.
Against PAXX #1, the values are total luciferase, z-score 0.162.
For PAXX #2, the entry reads total luciferase, z-score -0.283.
PAXX #3 showed total luciferase, z-score -1.87.
With knock-down of DECR2 #1, the record shows total luciferase, z-score -1.57.
For DECR2 #2 the deposit lists total luciferase, z-score -1.
Knock-down of DECR2 #3 came out at: total luciferase, z-score 0.357.
After knock-down of RPL12P8 #1, the record shows total luciferase, z-score 1.32.
RPL12P8 #2 scored total luciferase, z-score -0.00781.
Depletion of RPL12P8 #3 gave: total luciferase, z-score 1.83.
Silencing of CYB561A3 #1 resulted in: total luciferase, z-score -0.134.
CYB561A3 #2 gave total luciferase, z-score -1.88.
Depletion of CYB561A3 #3 gave: total luciferase, z-score -0.521.
Depletion of AZIN1 #1 resulted in: total luciferase, z-score -1.83.
For AZIN1 #2 the deposit lists total luciferase, z-score -2.85.
AZIN1 #3 showed total luciferase, z-score -2.59.

Sorted by “total luciferase, z-score” (high to low): some entries from above.
RPL12P8 #1 | total luciferase, z-score: 1.32
DECR2 #3 | total luciferase, z-score: 0.357
PAXX #2 | total luciferase, z-score: -0.283
DECR2 #2 | total luciferase, z-score: -1
DECR2 #1 | total luciferase, z-score: -1.57
PAXX #3 | total luciferase, z-score: -1.87

The results go on:
ARID3A #1 scored total luciferase, z-score -0.863.
Depletion of ARID3A #2 resulted in: total luciferase, z-score -1.43.
ARID3A #3 gave total luciferase, z-score -0.0446.
Against EFNA2 #1 the deposit lists total luciferase, z-score 0.368.
With knock-down of EFNA2 #2 the results were total luciferase, z-score -0.675.
For EFNA2 #3, the entry reads total luciferase, z-score -0.618.
Silencing of FHIT #1 came out at: total luciferase, z-score -0.0981.
FHIT #2 gave total luciferase, z-score 0.264.
Against FHIT #3 the deposit lists total luciferase, z-score 0.208.
JTB #1 showed total luciferase, z-score 0.494.
With knock-down of JTB #2, the record shows total luciferase, z-score -0.832.
Depletion of JTB #3 gave: total luciferase, z-score -0.0722.
With knock-down of FBXO9 #1 the results were total luciferase, z-score 1.07.
For FBXO9 #2 the deposit lists total luciferase, z-score -0.995.
With knock-down of FBXO9 #3 the results were total luciferase, z-score 0.677.
Depletion of KRTAP13-4 #1 resulted in: total luciferase, z-score 1.78.
For KRTAP13-4 #2, the values are total luciferase, z-score 1.67.
After knock-down of KRTAP13-4 #3, the screen gave total luciferase, z-score 0.0139.
With knock-down of SGO1 #1, the screen gave total luciferase, z-score -0.983.
SGO1 #2 showed total luciferase, z-score 0.226.
Knock-down of SGO1 #3 resulted in: total luciferase, z-score -0.643.
